Measurements as given in patent US4119629A, “Certain azaphenoxathiin compounds” (priority 1977, dated 1978).
For at least one compound, name, drawing or mass did not settle the structure.

What was measured:
[1] = Toxicity, survival time after im injection in DMSO; type: in vivo, mice; conditions: two minutes after injection
Excerpt: The following represents initial test observations for one of the above identified compounds.
Table of Toxicity Data for
1,5-bis(thiophenyl)-2-nitrobenzene* (2e)
Animal** (mg/kg im DMSO) Time (Days)
**All mice were tail-coded.
***Sacrificed at the end of 14 days.

[2] = type: in vivo, mice; conditions: 50 mg/kg, animal #5, compared to control
Excerpt: The following table illustrates utility of the compounds of the present invention as weight control agents.
Table of Weight Control Observed
With 1,5-bis(thiophenyl)-2-nitrobenzene
Animal (mg/kg) (grams) Date

For O=[N+]([O-])c1ccc(Sc2ccccc2)cc1Sc1ccccc1 [1,5-bis(thiophenyl)-2-nitrobenzene], the “central nervous system activity” value [1] was “decreased central nervous system activity” and the quantities ingested [2] was “equal or greater quantities when compared to control”.
